# Measured data: PubChem BioAssay AID720505 (Drosophila RNAi Screening Center, 2013)
# Assay: 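Genes needed for store-operated calcium entry in fly cells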 (primary screen)
# Cells: Drosophila S2R+ cells
# Reagents: long dsRNA against Drosophila genes
# Treatment: thapsigargin (2 µM) in calcium-free buffer to empty internal stores, then 2 mM calcium added back
# Measured: 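Fluo-4 signal in 384-well plates read on a FLIPR after thapsigargin (2 µM, calcium-free) store depletion and 2 mM calcium add-back; unnormalised mean endpoint per well; screen run twice, selected wells retested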
# Reading the numbers: calcium signal and retest calcium signal: higher = more calcium entry after store depletion
# Rule for the call: 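About 1500 genes called as lowering calcium entry, by varying amounts, judged against per-plate control wells with STIM1 as positive and Rho1 as negative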
# Calls: active = called as lowering calcium entry; inactive = not called
# The deposit covers about 20,000 reagents; below is an unselected part of those that have a named target and a result. Of all reagents, about 2,100 (10%) were called active. 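Raw plate signals without normalisation; calls rest on control-based scores that were not deposited; replicate 2 separates called from uncalled poorly.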 Unmarked entries are inactive. Names joined by + are all predicted targets of the reagent. Not stated in the record: the amount of reagent, the time to read-out.
gene,amplicon,"calcium signal, replicate 1","calcium signal, replicate 2","retest calcium signal, replicate 1","retest calcium signal, replicate 2"
THG,DRSC01896,99,85.5,,
Drep3,DRSC06312,155,166,9614,140
Drep3,DRSC07529,125,141,,
Drep3,DRSC22344,99.3,251,,
cv-d,DRSC16522,121,199,,
cv-d,DRSC16524,131,276,,
cv-d,DRSC16526,127,195,,
Ndc1,DRSC15895,232,347,,
CG33090,DRSC01908,106,101,,
ppk15,DRSC14733,268,127,,
Dtwd2,DRSC12501,84.6,167,,
Alh,DRSC12487,134,193,,
Alh,DRSC12488,122,174,,
CG15118,DRSC06540,126,126,,
CG14104,DRSC10106,104,92.5,,
mRpL49,DRSC19908,126,106,,
Nup50,DRSC06827,194,145,,
Adck5,DRSC10890,123,100,,
nompA,DRSC06329,132,201,,
CG6726,DRSC16101,171,131,,
CG5024,DRSC15698,194,154,,
CG17105,DRSC02574,231,177,,
slmo + CG34179,DRSC03143,88.9,194,,
Cpr72Ea,DRSC10451,110,94,,
Def,DRSC07398,102,79.6,,
eEF5,DRSC04681,66.5 (active),156,,
fw,DRSC20334,127,78.3,,
Dscam2,DRSC08869,6948,137,,
Dscam2,DRSC10198,84.4,71,,
Dscam2,DRSC10285,82,49.3,,
Dscam2,DRSC11018,90.4,81.3,,
Dscam2,DRSC11019,103,76.6,,
Dscam2,DRSC22526,92.1,85.2,,
CG5639,DRSC15851,62.7 (active),85.5,,
RpL10Aa,DRSC15518,145,192,,
CG6094,DRSC02927,87.4,110,103,98.2
CG6094,DRSC22705,111,177,,
CG8568,DRSC20113,142,103,,
Or85e,DRSC16768,154,105,,
CG14641,DRSC12227,141,88.3,,
Ir10a,DRSC19478,109,80.4,,
Ir10a,DRSC19479,64.1 (active),125,,
CG13982,DRSC02314,72.7 (active),111,,
BORCS5,DRSC19427,132,156,,
Smurf,DRSC07641,127,159,,
CG8237,DRSC07119,144,163,,
Orc4,DRSC04634,57.3 (active),162,,
mge,DRSC08721,85,95.7,,
CG11811,DRSC09862,56,88.1,,
Atg10 + CG12822,DRSC06796,58.4 (active),109,,
ksh,DRSC19554,163,117,,
CG14054,DRSC17909,99.2,113,,
CG43292,DRSC08883,9109,152,,
CG43292,DRSC21542,181,99.2,,
Top2,DRSC03459,122,108,,
CG5065,DRSC06912,133,122,,

In a second layout: entries from further up.
| gene | amplicon | calcium signal, replicate 1 | calcium signal, replicate 2 | retest calcium signal, replicate 1 | retest calcium signal, replicate 2 |
| --- | --- | --- | --- | --- | --- |
| Dscam2 | DRSC08869 | 6948 | 137 | – | – |
| Dscam2 | DRSC10198 | 84.4 | 71 | – | – |
| Dscam2 | DRSC10285 | 82 | 49.3 | – | – |
| Dscam2 | DRSC11018 | 90.4 | 81.3 | – | – |
| Dscam2 | DRSC11019 | 103 | 76.6 | – | – |
| Dscam2 | DRSC22526 | 92.1 | 85.2 | – | – |
| CG5639 | DRSC15851 | 62.7 (active) | 85.5 | – | – |
